Assay results published in publication doi:10.1101/2024.03.20.585881.
Results are given in words; binding and its absence hold for the method and conditions named. In cells and extracts the contact can be indirect. Here binding means that the protein was enriched with, or labelled near, the bait; the list need not be complete. Blank lines part the entries; values can stand above or below the binder they belong to.

Protein sequences, listed by entry. Tags and fused reporters are not part of them.
UniProt O15169: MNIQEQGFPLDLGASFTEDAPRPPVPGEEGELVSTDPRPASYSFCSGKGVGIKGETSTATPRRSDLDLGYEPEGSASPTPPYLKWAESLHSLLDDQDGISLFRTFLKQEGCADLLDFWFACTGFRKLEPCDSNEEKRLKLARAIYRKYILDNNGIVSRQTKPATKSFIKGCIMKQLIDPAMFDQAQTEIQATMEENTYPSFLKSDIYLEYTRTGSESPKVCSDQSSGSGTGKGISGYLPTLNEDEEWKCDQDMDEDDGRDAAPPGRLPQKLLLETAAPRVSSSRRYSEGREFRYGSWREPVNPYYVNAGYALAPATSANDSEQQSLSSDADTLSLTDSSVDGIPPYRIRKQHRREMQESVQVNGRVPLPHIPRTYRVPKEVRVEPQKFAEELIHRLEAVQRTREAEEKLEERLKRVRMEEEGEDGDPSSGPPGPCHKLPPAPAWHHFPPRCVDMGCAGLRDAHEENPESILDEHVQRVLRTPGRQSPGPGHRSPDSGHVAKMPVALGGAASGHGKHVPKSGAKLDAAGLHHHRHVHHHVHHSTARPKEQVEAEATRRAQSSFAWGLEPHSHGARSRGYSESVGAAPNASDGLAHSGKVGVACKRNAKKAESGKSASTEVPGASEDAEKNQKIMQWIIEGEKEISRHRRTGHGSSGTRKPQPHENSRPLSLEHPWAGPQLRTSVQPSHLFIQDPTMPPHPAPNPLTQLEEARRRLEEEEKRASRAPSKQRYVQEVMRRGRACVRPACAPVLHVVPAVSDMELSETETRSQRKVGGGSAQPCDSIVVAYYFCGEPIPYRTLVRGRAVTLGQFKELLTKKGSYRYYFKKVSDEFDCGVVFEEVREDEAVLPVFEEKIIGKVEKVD
UniProt P25054: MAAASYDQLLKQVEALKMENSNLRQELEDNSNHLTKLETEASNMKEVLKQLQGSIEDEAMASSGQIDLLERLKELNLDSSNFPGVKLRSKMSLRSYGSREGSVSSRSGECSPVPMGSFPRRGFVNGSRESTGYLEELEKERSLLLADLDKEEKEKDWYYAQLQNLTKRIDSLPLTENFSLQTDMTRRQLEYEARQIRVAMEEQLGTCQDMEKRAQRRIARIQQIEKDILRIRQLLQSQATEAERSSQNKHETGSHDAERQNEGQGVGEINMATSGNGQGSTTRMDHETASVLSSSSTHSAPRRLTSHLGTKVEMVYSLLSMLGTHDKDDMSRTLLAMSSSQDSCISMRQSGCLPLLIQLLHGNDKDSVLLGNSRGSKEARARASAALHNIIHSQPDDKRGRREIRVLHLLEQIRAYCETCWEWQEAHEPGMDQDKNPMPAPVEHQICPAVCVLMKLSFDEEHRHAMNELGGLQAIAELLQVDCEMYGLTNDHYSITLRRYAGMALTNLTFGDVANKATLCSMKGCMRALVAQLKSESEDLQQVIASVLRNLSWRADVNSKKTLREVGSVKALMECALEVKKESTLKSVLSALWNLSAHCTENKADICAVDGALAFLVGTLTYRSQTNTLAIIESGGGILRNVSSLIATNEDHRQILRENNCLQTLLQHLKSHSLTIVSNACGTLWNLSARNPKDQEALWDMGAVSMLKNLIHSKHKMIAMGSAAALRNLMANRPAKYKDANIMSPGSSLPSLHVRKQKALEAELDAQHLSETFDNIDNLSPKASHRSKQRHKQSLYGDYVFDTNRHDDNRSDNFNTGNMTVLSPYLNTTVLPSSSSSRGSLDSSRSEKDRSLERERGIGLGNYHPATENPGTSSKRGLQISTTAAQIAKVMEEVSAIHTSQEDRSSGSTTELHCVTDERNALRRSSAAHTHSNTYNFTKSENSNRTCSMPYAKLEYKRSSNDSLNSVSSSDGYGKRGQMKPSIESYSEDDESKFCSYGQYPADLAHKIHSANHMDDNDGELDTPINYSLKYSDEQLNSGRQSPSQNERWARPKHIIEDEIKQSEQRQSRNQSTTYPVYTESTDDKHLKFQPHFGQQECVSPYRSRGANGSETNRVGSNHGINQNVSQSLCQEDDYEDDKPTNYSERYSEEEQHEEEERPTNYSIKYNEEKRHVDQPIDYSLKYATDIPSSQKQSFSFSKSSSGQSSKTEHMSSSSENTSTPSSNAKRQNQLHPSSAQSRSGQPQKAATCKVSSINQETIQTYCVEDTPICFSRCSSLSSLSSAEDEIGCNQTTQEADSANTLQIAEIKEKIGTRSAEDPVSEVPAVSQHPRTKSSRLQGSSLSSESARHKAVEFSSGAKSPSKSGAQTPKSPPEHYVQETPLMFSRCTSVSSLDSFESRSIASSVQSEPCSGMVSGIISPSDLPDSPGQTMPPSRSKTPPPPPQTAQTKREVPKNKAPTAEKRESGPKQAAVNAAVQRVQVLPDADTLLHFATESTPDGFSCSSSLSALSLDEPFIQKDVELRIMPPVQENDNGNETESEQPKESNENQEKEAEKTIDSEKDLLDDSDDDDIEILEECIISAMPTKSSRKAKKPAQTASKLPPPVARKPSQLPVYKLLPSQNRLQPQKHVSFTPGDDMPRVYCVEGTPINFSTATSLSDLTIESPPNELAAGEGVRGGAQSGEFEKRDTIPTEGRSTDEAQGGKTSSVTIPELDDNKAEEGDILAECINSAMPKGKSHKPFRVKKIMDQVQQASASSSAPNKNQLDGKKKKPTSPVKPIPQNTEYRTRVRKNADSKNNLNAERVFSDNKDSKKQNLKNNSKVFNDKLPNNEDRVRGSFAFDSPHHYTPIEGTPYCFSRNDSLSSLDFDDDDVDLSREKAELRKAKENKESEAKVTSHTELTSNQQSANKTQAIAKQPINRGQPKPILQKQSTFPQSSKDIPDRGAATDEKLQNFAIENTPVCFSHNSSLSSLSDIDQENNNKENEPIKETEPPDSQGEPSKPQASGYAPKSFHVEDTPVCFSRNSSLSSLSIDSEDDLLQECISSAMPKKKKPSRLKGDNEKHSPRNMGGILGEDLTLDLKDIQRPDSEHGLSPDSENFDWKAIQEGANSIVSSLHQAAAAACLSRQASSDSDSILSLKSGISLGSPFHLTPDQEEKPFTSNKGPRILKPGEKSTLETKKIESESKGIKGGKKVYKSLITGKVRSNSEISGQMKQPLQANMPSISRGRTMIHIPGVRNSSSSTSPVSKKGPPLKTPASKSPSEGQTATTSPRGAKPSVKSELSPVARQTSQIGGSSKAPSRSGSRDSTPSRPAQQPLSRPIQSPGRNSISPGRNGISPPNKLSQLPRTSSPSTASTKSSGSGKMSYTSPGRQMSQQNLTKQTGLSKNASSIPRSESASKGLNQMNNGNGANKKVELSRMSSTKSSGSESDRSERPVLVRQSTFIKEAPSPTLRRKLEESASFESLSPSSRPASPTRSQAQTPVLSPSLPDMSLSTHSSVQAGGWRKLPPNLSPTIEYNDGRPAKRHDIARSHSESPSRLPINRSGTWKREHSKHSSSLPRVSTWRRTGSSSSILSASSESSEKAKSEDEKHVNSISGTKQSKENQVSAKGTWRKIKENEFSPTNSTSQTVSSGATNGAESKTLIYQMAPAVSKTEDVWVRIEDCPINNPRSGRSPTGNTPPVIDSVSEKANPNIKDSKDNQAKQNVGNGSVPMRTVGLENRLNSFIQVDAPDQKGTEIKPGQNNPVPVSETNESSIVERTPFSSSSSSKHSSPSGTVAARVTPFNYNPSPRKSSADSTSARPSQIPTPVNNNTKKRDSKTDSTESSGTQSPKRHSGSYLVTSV

Columns and labels:
Assay in all cases: affinity purification with mass spectrometry
3xFLAG-eGFP-Axin1 = 3xFLAG-eGFP-Axin1 (UniProt O15169)
eGFP-Axin1 = eGFP-Axin1 (UniProt O15169)
[1] = target: 3xFLAG-mScarlet-APC (human (endogenous in HEK293)) (UniProt P25054)

B1: 8-catenin (CTNND1) (protein, UniProt O60716 1-968)
chain: MDDSEVESTASILASVKEQEAQFEKLTRALEEERRHVSAQLERVRVSPQDANPLMANGTLTRRHQNGRFVGDADLERQKFSDLKLNGPQDHSHLLYSTIPRMQEPGQIVETYTEEDPEGAMSVVSVETSDDGTTRRTETTVKKVVKTVTTRTVQPVAMGPDGLPVDASSVSNNYIQTLGRDFRKNGNGGPGPYVGQAGTATLPRNFHYPPDGYSRHYEDGYPGGSDNYGSLSRVTRIEERYRPSMEGYRAPSRQDVYGPQPQVRVGGSSVDLHRFHPEPYGLEDDQRSMGYDDLDYGMMSDYGTARRTGTPSDPRRRLRSYEDMIGEEVPSDQYYWAPLAQHERGSLASLDSLRKGGPPPPNWRQPELPEVIAMLGFRLDAVKSNAAAYLQHLCYRNDKVKTDVRKLKGIPVLVGLLDHPKKEVHLGACGALKNISFGRDQDNKIAIKNCDGVPALVRLLRKARDMDLTEVITGTLWNLSSHDSIKMEIVDHALHALTDEVIIPHSGWEREPNEDCKPRHIEWESVLTNTAGCLRNVSSERSEARRKLRECDGLVDALIFIVQAEIGQKDSDSKLVENCVCLLRNLSYQVHREIPQAERYQEAAPNVANNTGPHAASCFGAKKGKDEWFSRGKKPIEDPANDTVDFPKRTSPARGYELLFQPEVVRIYISLLKESKTPAILEASAGAIQNLCAGRWTYGRYIRSALRQEKALSAIADLLTNEHERVVKAASGALRNLAVDARNKELIGKHAIPNLVKNLPGGQQNSSWNFSEDTVISILNTINEVIAENLEAAKKLRETQGIEKLVLINKSGNRSEKEVRAAALVLQTIWGYKELRKPLEKEGWKKSDFQVNLNNASRSQSSHSYDDSTLPLIDRNQKSDKKPDREEIQMSNMGSNTKSLDNNYSTPNERGDHNRTLDRSGDLGDMEPLKGTTPLMQDEGQESLEEELDVLVLDDEGGQVSYPSMQKI
binding (3xFLAG-eGFP-Axin1): binds

B3: α-catenin (CTNNA2) (protein, UniProt P26232 1-953)
chain: MTSATSPIILKWDPKSLEIRTLTVERLLEPLVTQVTTLVNTSNKGPSGKKKGRSKKAHVLAASVEQATQNFLEKGEQIAKESQDLKEELVAAVEDVRKQGETMRIASSEFADDPCSSVKRGTMVRAARALLSAVTRLLILADMADVMRLLSHLKIVEEALEAVKNATNEQDLANRFKEFGKEMVKLNYVAARRQQELKDPHCRDEMAAARGALKKNATMLYTASQAFLRHPDVAATRANRDYVFKQVQEAIAGISNAAQATSPTDEAKGHTGIGELAAALNEFDNKIILDPMTFSEARFRPSLEERLESIISGAALMADSSCTRDDRRERIVAECNAVRQALQDLLSEYMNNTGRKEKGDPLNIAIDKMTKKTRDLRRQLRKAVMDHISDSFLETNVPLLVLIEAAKSGNEKEVKEYAQVFREHANKLVEVANLACSISNNEEGVKLVRMAATQIDSLCPQVINAALTLAARPQSKVAQDNMDVFKDQWEKQVRVLTEAVDDITSVDDFLSVSENHILEDVNKCVIALQEGDVDTLDRTAGAIRGRAARVIHIINAEMENYEAGVYTEKVLEATKLLSETVMPRFAEQVEVAIEALSANVPQPFEENEFIDASRLVYDGVRDIRKAVLMIRTPEELEDDSDFEQEDYDVRSRTSVQTEDDQLIAGQSARAIMAQLPQEEKAKIAEQVEIFHQEKSKLDAEVAKWDDSGNDIIVLAKQMCMIMMEMTDFTRGKGPLKNTSDVINAAKKIAEAGSRMDKLARAVADQCPDSACKQDLLAYLQRIALYCHQLNICSKVKAEVQNLGGELIVSGTGVQSTFTTFYEVDCDVIDGGRASQLSTHLPTCAEGAPIGSGSSDSSMLDSATSLIQAAKNLMNAVVLTVKASYVASTKYQKVYGTAAVNSPVVSWKMKAPEKKPLVKREKPEEFQTRVRRGSQKKHISPVQALSEFKAMDSF
binding (eGFP-Axin1): binds
binding (3xFLAG-eGFP-Axin1): binds

The next lines start with the values.

binding (eGFP-Axin1): binds
binding (3xFLAG-eGFP-Axin1): binds
binding [1]: binds
B2: JUP (ψ-catenin) (protein, UniProt P14923 1-745)
chain: MEVMNLMEQPIKVTEWQQTYTYDSGIHSGANTCVPSVSSKGIMEEDEACGRQYTLKKTTTYTQGVPPSQGDLEYQMSTTARAKRVREAMCPGVSGEDSSLLLATQVEGQATNLQRLAEPSQLLKSAIVHLINYQDDAELATRALPELTKLLNDEDPVVVTKAAMIVNQLSKKEASRRALMGSPQLVAAVVRTMQNTSDLDTARCTTSILHNLSHHREGLLAIFKSGGIPALVRMLSSPVESVLFYAITTLHNLLLYQEGAKMAVRLADGLQKMVPLLNKNNPKFLAITTDCLQLLAYGNQESKLIILANGGPQALVQIMRNYSYEKLLWTTSRVLKVLSVCPSNKPAIVEAGGMQALGKHLTSNSPRLVQNCLWTLRNLSDVATKQEGLESVLKILVNQLSVDDVNVLTCATGTLSNLTCNNSKNKTLVTQNSGVEALIHAILRAGDKDDITEPAVCALRHLTSRHPEAEMAQNSVRLNYGIPAIVKLLNQPNQWPLVKATIGLIRNLALCPANHAPLQEAAVIPRLVQLLVKAHQDAQRHVAAGTQQPYTDGVRMEEIVEGCTGALHILARDPMNRMEIFRLNTIPLFVQLLYSSVENIQRVAAGVLCELAQDKEAADAIDAEGASAPLMELLHSRNEGTATYAAAVLFRISEDKNPDYRKRVSVELTNSLFKHDPAAWEAAQSMIPINEPYGDDMDATYRPMYSSDVPLDPLEMHMDMDGDYPIDTYSDGLRPPYPTADHMLA

binding (3xFLAG-eGFP-Axin1): binds
B4: AMER1 (protein, UniProt Q5JTC6 1-1135)
chain: METQKDEAAQAKGAAASGSTREQTAEKGAKNKAAEATEGPTSEPSSSGPGRLKKTAMKLFGGKKGICTLPSFFGGGRSKGSGKGSSKKGLSKSKTHDGLSEAAHGPEDVVSEGTGFSLPLPELPCQFPSSQSAHGALETGSRCKTSVAGATEKAVAEKFPSMPKPKKGLKGFFSSIRRHRKSKVTGAEQSEPGAKGPERVRARPHEHVSSAPQVPCFEETFQAPRKENANPQDAPGPKVSPTPEPSPPATEKMACKDPEKPMEACASAHVQPKPAPEASSLEEPHSPETGEKVVAGEVNPPNGPVGDPLSLLFGDVTSLKSFDSLTGCGDIIAEQDMDSMTDSMASGGQRANRDGTKRSSCLVTYQGGGEEMALPDDDDEEEEEEEEVELEEEEEEVKEEEEDDDLEYLWETAQMYPRPNMNLGYHPTTSPGHHGYMLLDPVRSYPGLAPGELLTPQSDQQESAPNSDEGYYDSTTPGFEDDSGEALGLVRRDCLPRDSYSGDALYEFYEPDDSLENSPPGDDCLYDLHGRSSEMFDPFLNFEPFLSSRPPGAMETEEERLVTIQKQLLYWELRREQLEAQEARAREAHAREAHAREAYTREAYGREAYAREAHTWEAHGREARTREAQAREVRCRETQVRETQARQEKPVLEYQMRPLGPSVMGLAAGVSGTSQISHRGITSAFPTTASSEPDWRDFRPLEKRYEGTCSKKDQSTCLMQLFQSDAMFEPDMQEANFGGSPRRAYPTYSPPEDPEEEEVEKEGNATVSFSQALVEFTSNGNLFSSMSCSSDSDSSFTQNLPELPPMVTFDIADVERDGEGKCEENPEFHNDEDLAASLEAFELGYYHKHAFNNYHSRFYQGLPWGVSSLPRYLGLPGLHPRPPPAAMALNRRSRSLDTAETLEMELSNSHLVQGYLESDELQAQQEDSDEEDEEEEEGEWSRDSPLSLYTEPPGAYDWPAWAPCPLPVGPGPAWISPNQLDRPSSQSPYRQATCCIPPMTMSISLSVPESRAPGESGPQLARPSHLHLPMGPCYNLQPQASQSMRARPRDVLLPVDEPSCSSSSGGFSPSPLPQAKPVGITHGIPQLPRVRPEHPQPQPTHYGPSSLDLSKERAEQGASLATSYSSTAMNGNLAK
